Measured values published in paper PMC4627819, “Bacillus subtilis Bactofilins Are Essential for Flagellar Hook- and Filament Assembly and Dynamically Localize into Structures of Less than 100 nm Diameter underneath the Cell Membrane” (PLoS ONE, 2015).
These are yes or no findings as the source states them, for the method shown. In cells and extracts the contact can be indirect. Some binding calls cover weakened binding; strength is not graded here. Sequences can lack the tags named with a protein.

T1: BacE carrying a hexa-histidine tag (his6-yhbE) (Bacillus subtilis) (UniProt P39132)
T1 sequence: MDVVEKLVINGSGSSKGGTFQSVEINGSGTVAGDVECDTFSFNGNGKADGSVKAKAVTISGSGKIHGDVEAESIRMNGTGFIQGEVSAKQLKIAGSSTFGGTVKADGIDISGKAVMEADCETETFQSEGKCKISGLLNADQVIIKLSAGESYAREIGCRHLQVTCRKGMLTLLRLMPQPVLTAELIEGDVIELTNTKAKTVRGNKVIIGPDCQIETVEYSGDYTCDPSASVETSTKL

T2: BacF carrying a hexa-histidine tag (6-His-BacF) (Bacillus subtilis) (UniProt P39133)
T2 sequence: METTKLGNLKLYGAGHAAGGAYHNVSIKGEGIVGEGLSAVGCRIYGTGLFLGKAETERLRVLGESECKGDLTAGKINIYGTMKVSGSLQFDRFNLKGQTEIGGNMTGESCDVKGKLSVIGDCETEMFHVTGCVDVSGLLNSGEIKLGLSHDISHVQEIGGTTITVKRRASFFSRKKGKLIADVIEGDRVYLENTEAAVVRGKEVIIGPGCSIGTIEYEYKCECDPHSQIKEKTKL

B1: BacF carrying a hexa-histidine tag (6-His-BacF) (natural protein, Bacillus subtilis, UniProt P39133 1-235, looked up)
chain: METTKLGNLKLYGAGHAAGGAYHNVSIKGEGIVGEGLSAVGCRIYGTGLFLGKAETERLRVLGESECKGDLTAGKINIYGTMKVSGSLQFDRFNLKGQTEIGGNMTGESCDVKGKLSVIGDCETEMFHVTGCVDVSGLLNSGEIKLGLSHDISHVQEIGGTTITVKRRASFFSRKKGKLIADVIEGDRVYLENTEAAVVRGKEVIIGPGCSIGTIEYEYKCECDPHSQIKEKTKL
notes: Bactofilin BacF, product of yhbF, Bacillus subtilis; full-length yhbF cloned into pET16b or pET24d; also called YhbF; his6-yhbF; source: E. coli BL21 (DE3); also coexpressed with untagged BacE, in cell extract
B2: BacE carrying a hexa-histidine tag (his6-yhbE) (natural protein, Bacillus subtilis, UniProt P39132 1-237, looked up)
chain: MDVVEKLVINGSGSSKGGTFQSVEINGSGTVAGDVECDTFSFNGNGKADGSVKAKAVTISGSGKIHGDVEAESIRMNGTGFIQGEVSAKQLKIAGSSTFGGTVKADGIDISGKAVMEADCETETFQSEGKCKISGLLNADQVIIKLSAGESYAREIGCRHLQVTCRKGMLTLLRLMPQPVLTAELIEGDVIELTNTKAKTVRGNKVIIGPDCQIETVEYSGDYTCDPSASVETSTKL
notes: Bactofilin BacE, product of yhbE, Bacillus subtilis; full-length yhbE cloned into pET16b or pET24d; source: E. coli BL21 (DE3); also coexpressed with untagged BacF, in cell extract

Assays:
[1] = biological target: T1, BacE carrying a hexa-histidine tag (his6-yhbE) (Bacillus subtilis); assay: pull-down; co-purification on a Ni-NTA column from E. coli cells coexpressing one hexa-histidine-tagged and one untagged bactofilin; eluates on Coomassie-stained SDS-PAGE
[2] = biological target: T2, BacF carrying a hexa-histidine tag (6-His-BacF) (Bacillus subtilis); assay: as above

| Binder | binding [1] | binding [2] |
| --- | --- | --- |
| B1 | binds |  |
| B2 |  | binds |
